Results from PubChem BioAssay AID248 (DTP/NCI, 2004).
The list is a part of this screen's results and no random one: it is rich in T/C values a quarter to a half above the control, in often repeated tests (any T/C) and in doses without a T/C. Other doses and runs of a compound stand elsewhere. T/C gives the treated animals as a percentage of the vehicle group. Some doses have a count of surviving animals in place of a T/C: the source files T/C as zero there, which appears to mark a toxic dose or a test without result, not a measured value. Some survivor counts are full or nearly so, which does not show that the dose was tolerated: survival well below the control is almost never listed, so the zero probably covers shortened survival too. Survivors were counted at the toxicity check, usually on the fifth day, unless a day is given; later deaths do not show. Schedules are NCI's codes, taken here to give the interval after Q, in days (D) or hours (H), and the number of doses after X. Some schedule codes hold Z or #, which are not explained here. Some structures stand for samples that the source files as different forms (salt, stereo form or complex); doses refer to the form tested. Where survival is the endpoint, the PubChem record calls one and a half times the control and up active, and a quarter to a half above the control has no call in these data; cut-offs in other NCI protocols can differ. Some T/C values carry the count of animals alive at the toxicity check (mostly the fifth day); without a count, all were alive then.

Test system: L1210 leukemia ip in BDF1 mice, survival T/C
Assay: NCI In Vivo Anticancer Drug Screen. Data for tumor model L1210 Leukemia (intraperitoneal) in B6D2F1 (BDF1) mice
Details: T/C endpoint: mean survival time, higher T/C = longer survival
[1] = dose: 400.0 mg/kg/injection, schedule: Q04DX003 (ip), vehicle: acetone
[2] = dose: 400.0 mg/kg/injection, schedule: Q04DX003 (ip), vehicle: saline with Tween-80
[3] = dose: 50.0 mg/kg/injection, schedule: Q04DX003 (ip), vehicle: saline
[4] = dose: 400.0 mg/kg/injection, schedule: Q04DX003 (ip), vehicle: saline
[5] = dose: 10.0 mg/kg/injection, schedule: Q01DX009 (ip), vehicle: saline

What does the source list for `CC1=NCCc2c1cc1c([nH]c3ccccc31)c2C`?
T/C (dose: 65.0 mg/kg/injection, schedule: Q01DX009 (ip), vehicle: other): 132 % of control; T/C (dose: 67.0 mg/kg/injection, schedule: Q01DX009 (ip), vehicle: saline with Tween-80): 134 % of control; T/C (dose: 100.0 mg/kg/injection, schedule: Q01DX009 (ip), vehicle: saline with Tween-80): 130 % of control; T/C (dose: 140.0 mg/kg/injection, schedule: Q01DX009 (ip), vehicle: other): 141 % of control [5 of 6 alive]; survivor count [1]: 4 of 6; T/C [2]: 131 % of control; survivor count [2]: 5 of 6; survivor count (dose: 600.0 mg/kg/injection, schedule: Q04DX003 (ip), vehicle: saline with Tween-80): 0 of 6

With `O=C(O)c1cc([N+](=O)[O-])ccc1P(=O)(O)O` as the compound, how does the survivor count (dose: 300.0 mg/kg/injection, schedule: Q01DX001 (ip), vehicle: saline) read?
The survivor count was 3 of 6.

With `Cc1ncc(CO)c(C2NOCc3nccnc32)c1O` (stereo not drawn) as the compound, how does the survivor count (dose: 25.0 mg/kg/injection, schedule: Q04DX003 (ip), vehicle: saline) read?
The survivor count was 4 of 6.

What about the survivor count [3] of the same compound?
Its survivor count is 1 of 6.

What about the survivor count (dose: 100.0 mg/kg/injection, schedule: Q04DX003 (ip), vehicle: saline with Tween-80) of the same compound?
Its survivor count is 0 of 6.

And the survivor count (dose: 200.0 mg/kg/injection, schedule: Q04DX003 (ip), vehicle: saline with Tween-80)?
Its survivor count is 0 of 6.

What about the survivor count [2] of the same compound?
Its survivor count is 0 of 6.

For `CN(C)C(=O)c1cccc(COc2ccc(N)cc2Cl)c1`, which survivor count [4] is on record?
The survivor count was 4 of 6.

For `N#CC(C#N)=Cc1ccc2c(c1)CCC2`, which survivor count (dose: 150.0 mg/kg/injection, schedule: Q01DX001 (ip), vehicle: other) is on record?
The survivor count was 0 of 6.

What about the survivor count (dose: 300.0 mg/kg/injection, schedule: Q01DX001 (ip), vehicle: other) of the same compound?
Its survivor count is 0 of 6.

With `O=[N+]([O-])/C=C\c1cc(Cl)c(/C=C/[N+](=O)[O-])c(Cl)c1Cl` as the compound, how does the survivor count (dose: 5.0 mg/kg/injection, schedule: Q01DX009 (ip), vehicle: saline) read?
Its survivor count is 6 of 6.

And the survivor count (dose: 5.0 mg/kg/injection, schedule: Q04DX003 (ip), vehicle: acetone)?
Its survivor count is 6 of 6.

What about the survivor count [5] of the same compound?
The survivor count was 6 of 6.

And the survivor count (dose: 40.0 mg/kg/injection, schedule: Q01DX001 (ip), vehicle: acetone)?
The survivor count was 2 of 6.

For `CCN(CCCl)Cc1ccc(-c2c3ccccc3cc3c2ccc2ccccc23)cc1`, which survivor count (dose: 266.0 mg/kg/injection, schedule: Q01DX001 (ip), vehicle: carboxymethylcellulose (CMC)) is on record?
Its survivor count is 2 of 6.

And the survivor count (dose: 400.0 mg/kg/injection, schedule: Q01DX001 (ip), vehicle: carboxymethylcellulose (CMC))?
Its survivor count is 3 of 6.

What about the survivor count (dose: 600.0 mg/kg/injection, schedule: Q01DX001 (ip), vehicle: carboxymethylcellulose (CMC)) of the same compound?
Its survivor count is 1 of 6.

`CCOC(=O)CC1COC(=O)C1C(=O)OCC` (stereo not drawn) was tested. Which survivor count (dose: 50.0 mg/kg/injection, schedule: Q01DX009 (ip), vehicle: saline with Tween-80) did it give?
The survivor count was 3 of 6.

For `Cc1cccc2c(Nc3ccc(NS(C)(=O)=O)cc3)c3ccccc3nc12`, which T/C (dose: 1.25 mg/kg/injection, schedule: Q01DX009 (ip), vehicle: Klucel (hydroxypropylcellulose) (HPC)) is on record?
The T/C was 127 % of control.

And the T/C (dose: 10.0 mg/kg/injection, schedule: Q01DX009 (ip), vehicle: Klucel (hydroxypropylcellulose) (HPC))?
Its T/C is 149 % of control.

And the survivor count [5]?
Its survivor count is 2 of 6.

And the T/C (dose: 20.0 mg/kg/injection, schedule: Q01DX009 (ip), vehicle: Klucel (hydroxypropylcellulose) (HPC))?
The T/C was 140 % of control.

What about the T/C (dose: 20.0 mg/kg/injection, schedule: Q01DX009 (ip), vehicle: saline) of the same compound?
The T/C was 129 % of control.

And the T/C (dose: 20.0 mg/kg/injection, schedule: Q04DX003 (ip), vehicle: Klucel (hydroxypropylcellulose) (HPC))?
The T/C was 141 % of control.

And the T/C (dose: 20.0 mg/kg/injection, schedule: Q04DX003 (ip), vehicle: saline with Tween-80)?
Its T/C is 127 % of control.

What about the survivor count (dose: 40.0 mg/kg/injection, schedule: Q01DX009 (ip), vehicle: saline) of the same compound?
The survivor count was 6 of 6.

And the T/C (dose: 40.0 mg/kg/injection, schedule: Q04DX003 (ip), vehicle: Klucel (hydroxypropylcellulose) (HPC))?
Its T/C is 144 % of control.

And the T/C (dose: 80.0 mg/kg/injection, schedule: Q01DX001 (ip), vehicle: saline with Tween-80)?
Its T/C is 130 % of control.

What about the survivor count (dose: 80.0 mg/kg/injection, schedule: Q01DX009 (ip), vehicle: Klucel (hydroxypropylcellulose) (HPC)) of the same compound?
The survivor count was 6 of 6.

And the T/C (dose: 80.0 mg/kg/injection, schedule: Q01DX009 (sc), vehicle: saline)?
The T/C was 134 % of control.

What about the T/C (dose: 160.0 mg/kg/injection, schedule: Q01DX001 (ip), vehicle: saline with Tween-80) of the same compound?
The T/C was 142 % of control.

And the T/C (dose: 320.0 mg/kg/injection, schedule: Q04DX003 (ip), vehicle: Klucel (hydroxypropylcellulose) (HPC))?
The T/C was 135 % of control.

What about the survivor count (dose: 800.0 mg/kg/injection, schedule: Q04DX003 (ip), vehicle: saline) of the same compound?
Its survivor count is 6 of 6.

For `CCCCN(CC)CC#N`, which survivor count [3] is on record?
The survivor count was 6 of 6.

Which survivor count (dose: 60.0 mg/kg/injection, schedule: Q01DX Z (ip), vehicle: saline) does the source give for `CC(=N\N=C(N)N)/C(=N/N=C(N)N)c1ccccc1` here?
The survivor count was 0 of 6.

And the survivor count (dose: 120.0 mg/kg/injection, schedule: Q01DX Z (ip), vehicle: saline)?
The survivor count was 0 of 6.

And the survivor count (dose: 480.0 mg/kg/injection, schedule: Q01DX009 (oral), vehicle: saline)?
Its survivor count is 5 of 6.

For `O=C1C=C2CCCCC2C1` (stereo not drawn), which survivor count (dose: 200.0 mg/kg/injection, schedule: Q01DX009 (ip), vehicle: saline with Tween-80) is on record?
Its survivor count is 1 of 3.

`NOCC(=O)O` was tested. Which survivor count (dose: 100.0 mg/kg/injection, schedule: Q01DX001 (ip), vehicle: carboxymethylcellulose (CMC)) did it give?
The survivor count was 4 of 4.

How did the survivor count (dose: 300.0 mg/kg/injection, schedule: Q01DX001 (ip), vehicle: carboxymethylcellulose (CMC)) turn out when `O=C(O)c1ccc(Br)c2ccccc12` was run?
The survivor count was 2 of 6.

Which survivor count (dose: 100.0 mg/kg/injection, schedule: Q04DX002 (ip), vehicle: Klucel (hydroxypropylcellulose) (HPC)) does the source give for `CCOC(C)(NCc1ccccc1)OCC` here?
The survivor count was 0 of 3.

Which survivor count (dose: 6.25 mg/kg/injection, schedule: Q01DX009 (ip), vehicle: sodium bicarbonate) does the source give for `CN(Cc1cnc2nc(N)nc(N)c2n1)c1ccc(C(=O)NC(CCC(=O)O)C(=O)O)c(Cl)c1` (stereo not drawn) here?
Its survivor count is 0 of 10.

What about the T/C (dose: 12.5 mg/kg/injection, schedule: Q01DX009 (ip), vehicle: sodium bicarbonate) of the same compound?
Its T/C is 138 % of control.

And the T/C (dose: 50.0 mg/kg/injection, schedule: Q01DX009 (ip), vehicle: sodium bicarbonate)?
The T/C was 126 % of control.

With `CCCCCCCCCCCC(O)CCCC` (stereo not drawn) as the compound, how does the survivor count (dose: 400.0 mg/kg/injection, schedule: Q01DX009 (ip), vehicle: Klucel (hydroxypropylcellulose) (HPC)) read?
Its survivor count is 5 of 6.

`CC(=O)O/N=C(/C)c1ccccc1` was tested. Which survivor count (dose: 300.0 mg/kg/injection, schedule: Q01DX009 (ip), vehicle: saline sonified) did it give?
Its survivor count is 3 of 6.

Which results are given for `C[n+]1ccccc1/C=C/c1ccc2c(c1)OCO2`?
survivor count (dose: 50.0 mg/kg/injection, schedule: Q01DX009 (ip), vehicle: Klucel (hydroxypropylcellulose) (HPC)): 6 of 6; survivor count (dose: 50.0 mg/kg/injection, schedule: Q04DX003 (ip), vehicle: Klucel (hydroxypropylcellulose) (HPC)): 5 of 6; survivor count (dose: 100.0 mg/kg/injection, schedule: Q04DX003 (ip), vehicle: Klucel (hydroxypropylcellulose) (HPC)): 0 of 6; survivor count (dose: 200.0 mg/kg/injection, schedule: Q04DX003 (ip), vehicle: Klucel (hydroxypropylcellulose) (HPC)): 0 of 6; survivor count (dose: 400.0 mg/kg/injection, schedule: Q04DX003 (ip), vehicle: Klucel (hydroxypropylcellulose) (HPC)): 0 of 6

How did the survivor count (dose: 400.0 mg/kg/injection, schedule: Q04DX002 (ip), vehicle: saline) turn out when `CC(C)CNCc1cc(Nc2ccnc3cc(Cl)ccc23)ccc1O` was run?
The survivor count was 0 of 3.

For `C=C(C)CCc1ccccc1`, which survivor count (dose: 400.0 mg/kg/injection, schedule: Q01DX001 (ip), vehicle: saline) is on record?
Its survivor count is 1 of 4.

For `O=C=Nc1ccc(CCc2ccc(N=C=O)cc2)cc1`, which survivor count (dose: 400.0 mg/kg/injection, schedule: Q01DX009 (ip), vehicle: saline) is on record?
Its survivor count is 4 of 6.

`Cc1ccc(S(=O)(=O)OC2CCN(C)CC2)cc1` was tested. Which survivor count [3] did it give?
Its survivor count is 0 of 6.

What about the survivor count (dose: 100.0 mg/kg/injection, schedule: Q04DX003 (ip), vehicle: saline) of the same compound?
Its survivor count is 0 of 6.

What about the survivor count (dose: 200.0 mg/kg/injection, schedule: Q01DX005 (ip), vehicle: saline) of the same compound?
The survivor count was 0 of 3.

And the survivor count (dose: 200.0 mg/kg/injection, schedule: Q04DX003 (ip), vehicle: saline)?
Its survivor count is 0 of 6.

And the survivor count (dose: 400.0 mg/kg/injection, schedule: Q01DX005 (ip), vehicle: saline)?
Its survivor count is 0 of 3.

And the survivor count [4]?
The survivor count was 0 of 6.

Which survivor count [1] does the source give for `CC(C)c1cccc2ccccc12` here?
The survivor count was 5 of 6.
